This note sets out measurements from patent US20250042880A1 (UNIVERSITY OF KENTUCKY RESEARCH FOUNDATION, priority 2021, published 2025).

SMILES strings stand for the structures.

This data set has as its system LS174T cells. Put plainly: RNA-Seq transcriptomic assay. It counts as cell-based. The settings on record: 5 μM, 24 h, Qvalue ≤0.05 and |log 2FC|≥1.

Molecule `O=c1c(-c2ccc(Cl)c(Cl)c2)coc2cc(OCCN3CCN(CCO)CC3)ccc12` [DBI-6, 3-(3,4-dichlorophenyl)-7-(2-(4-(2-hydroxyethyl)piperazin-1-yl)ethoxy)-4H-chromen-4-one] gave a genes down-regulated of 2772 and a genes up-regulated of 2799.
